{"source": "paper PMC6588558", "target": "protein G-related A2M-binding protein (GRAB) (S. pyogenes) (UniProt Q7DAL7)", "experiment": "affinity purification with mass spectrometry; AP-DIA: 10 μg affinity-tagged bait on Strep-Tactin Sepharose beads, pooled normal human plasma (100 μl) or saliva (200 μl), 37 °C, 1 h, washed with ice-cold PBS, eluted with biotin; DIA-MS; sfGFP as negative control; only the target purified", "note": "No constants are given. Whether binding was seen depends on the method and setting. In cells and extracts the contact can be indirect. These calls come from enrichment with a bait or labelling near it, and not all partners need be listed.", "data": [{"binder": "alpha-2-macroglobulin (protein, UniProt P01023 24-1474) SVSGKPQYMVLVPSLLHTETTEKGCVLLSYLNETVTVSASLESVRGNRSLFTDLEAENDVLHCVAFAVPKSSSNEEVMFLTVQVKGPTQEFKKRTTVMVKNEDSLVFVQTDKSIYKPGQTVKFRVVSMDENFHPLNELIPLVYIQDPKGNRIAQWQSFQLEGGLKQFSFPLSSEPFQGSYKVVVQKKSGGRTEHPFTVEEFVLPKFEVQVTVPKIITILEEEMNVSVCGLYTYGKPVPGHVTVSICRKYSDASDCHGEDSQAFCEKFSGQLNSHGCFYQQVKTKVFQLKRKEYEMKLHTEAQIQEEGTVVELTGRQSSEITRTITKLSFVKVDSHFRQGIPFFGQVRLVDGKGVPIPNKVIFIRGNEANYYSNATTDEHGLVQFSINTTNVMGTSLTVRVNYKDRSPCYGYQWVSEEHEEAHHTAYLVFSPSKSFVHLEPMSHELPCGHTQTVQAHYILNGGTLLGLKKLSFYYLIMAKGGIVRTGTHGLLVKQEDMKGHFSISIPVKSDIAPVARLLIYAVLPTGDVIGDSAKYDVENCLANKVDLSFSPSQSLPASHAHLRVTAAPQSVCALRAVDQSVLLMKPDAELSASSVYNLLPEKDLTGFPGPLNDQDNEDCINRHNVYINGITYTPVSSTNEKDMYSFLEDMGLKAFTNSKIRKPKMCPQLQQYEMHGPEGLRVGFYESDVMGRGHARLVHVEEPHTETVRKYFPETWIWDLVVVNSAGVAEVGVTVPDTITEWKAGAFCLSEDAGLGISSTASLRAFQPFFVELTMPYSVIRGEAFTLKATVLNYLPKCIRVSVQLEASPAFLAVPVEKEQAPHCICANGRQTVSWAVTPKSLGNVNFTVSAEALESQELCGTEVPSVPEHGRKDTVIKPLLVEPEGLEKETTFNSLLCPSGGEVSEELSLKLPPNVVEESARASVSVLGDILGSAMQNTQNLLQMPYGCGEQNMVLFAPNIYVLDYLNETQQLTPEIKSKAIGYLNTGYQRQLNYKHYDGSYSTFGERYGRNQGNTWLTAFVLKTFAQARAYIFIDEAHITQALIWLSQRQKDNGCFRSSGSLLNNAIKGGVEDEVTLSAYITIALLEIPLTVTHPVVRNALFCLESAWKTAQEGDHGSHVYTKALLAYAFALAGNQDKRKEVLKSLNEEAVKKDNSVHWERPQKPKAPVGHFYEPQAPSAEVEMTSYVLLAYLTAQPAPTSEDLTSATNIVKWITKQQNAQGGFSSTQDTVVALHALSKYGAATFTRTGKAAQVTIQSSGTFSSKFQVDNNNRLLLQQVSLPELPGEYSMKVTGEGCVYLQTSLKYNILPEKEEFPFALGVQTLPQTCDEPKAHTSFQISLSVSYTGSRSASNMAIVDVKMVSGFIPLKPTVKMLERSNHVSRTEVSSNHVLIYLDKVSNQTLSLFFTVLQDVPVRDLKPAIVKVYDYYETDEFAIAEYNAPCSKDLGNA", "values": [{"measurement": "binding", "result": "binds"}]}]}
